# Reference: PubChem BioAssay AID1347426 (Functional Genomics Laboratory (NCATS/FGL), 2020)
# The whole screen tested about 31,000 sequences, of which about 1,400 (4.5%) were called active.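 How the source made its calls: active means median seed-adjusted z-score above 1 or below -1; inactive means the rest.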 The list shows a part of the results.
# Assay: Novel Modifiers of Survival Motor Neuron (SMN) Protein: Gene Identification via Genome-wide siRNA Screen;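 further: luminescence tracks full-length SMN protein made from the SMN2 reporter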
# Details: HEK293T SMN2-luciferase reporter, siRNA knockdown, 72 h; actives lie on both sides
# Outline: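 HEK293T cells stably carrying an SMN2 promoter/splicing cassette–luciferase reporter were reverse-transfected with 1 pmol siRNA per well (druggable-genome library, 3 siRNAs per gene) and grown 72 h at 37 °C. Luminescence, normalized to negative-control siRNA and log10-transformed, was scored as MAD.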
row,Sequence,median seed-adjusted z-score
1,CACAAUUCAUGACCAUAUUTT against LRRC4,inactive: 0.255
2,CAGAGGCUUUGGACAAUUATT against HMX2,inactive: -0.547
3,GCCUCACAUUUUCUAAUGATT against RRM2,active: -3.84
4,CCUCAAGAUUCACCACUAUTT against OVGP1,inactive: -0.642
5,GCAUUGACUCUUCUUACUATT against PGA5,inactive: -0.149
6,GAAAAUGACGGUUAUAAGATT against PMM2,inactive: 0.448
7,GGAUUGGUCCGACCUCGUATT against RNMTL1,inactive: 0.174
8,GGAUAUGGGUAUACUAUUATT against MINPP1,inactive: -0.0107
9,GCCCACUGACCAUACCUCATT against NAT6,inactive: -0.327
10,GGCGGAGAGAUAUCACCUATT against TGM4,inactive: -0.43
11,GGAGGUCAAGUUAUCAGAATT against SDR42E1,inactive: -0.109
12,GCCUUUCGAAAGUACAUGATT against SCN11A,inactive: 0.196
13,GCAACGAUCACCUAAAUUATT against NOP2,active: 1.15
14,GAAAAACGGAUAUUUACAATT against PITPNB,inactive: 0.57
15,GCAUUAGUUUCUCAGUUAATT against MLH1,inactive: -0.215
16,GGAGCUAUGCUUAUCCCAATT against GABRA6,inactive: 0.466
17,GAACAACGGCUGCUAAAGATT against FER,inactive: 0
18,GUAUUAGCCUCACUUAACATT against FXC1,inactive: -0.00735
19,CAGUAACUGAAGAUCUUUATT against LRRC19,inactive: -0.062
20,GCAGAAACGUGCAGAUAAATT against GNL3L,inactive: 0.568
21,GCAACUUAUCACAACUGAATT against TLR6,inactive: 0.505
22,GGUUUGAUGUAGGCCCAAUTT against MTFMT,inactive: -0.0119
23,GUGCCACCGGAGCUAGUAATT against KCNK4,inactive: -0.446

# No new results follow: entries from further up.
row,Sequence,median seed-adjusted z-score
18,GUAUUAGCCUCACUUAACATT against FXC1,inactive: -0.00735
19,CAGUAACUGAAGAUCUUUATT against LRRC19,inactive: -0.062
20,GCAGAAACGUGCAGAUAAATT against GNL3L,inactive: 0.568

# Next part.

row,Sequence,median seed-adjusted z-score
1,AGUGACUUGUGACAAUUUATT against LPAR5,inactive: 0.0711
2,GUAUUAACGAUUACAUCCATT against AGAP2,inactive: 0.0934
3,CACGAAAUAUUGGAAGUGATT against ST8SIA5,inactive: -0.358
4,CCAUCGCAGUAAUUACUCATT against RLF,inactive: 0
5,CAACUGCCUUCACCAAAAUTT against UGT1A1,inactive: -0.0283
6,GAGCCGCUGGUGUAUCUUUTT against TLR4,inactive: 0.113
7,ACCCAGAAUUUAACGAGGATT against DOC2A,inactive: 0.299
8,GAUCGCUACUUACAGGAUATT against CYP51A1,inactive: -0.242
9,GGAUAUGGUUGGUCAAAAUTT against CDH7,inactive: 0
10,CAAGAAGAUGUAAAGCGUATT against RANBP17,inactive: -0.123
11,GGAAGACAUUCUGACUCAATT against SRrp35,inactive: -0.0574
12,GGAUCGAGCUUUCUAUGGATT against PELO,inactive: 0.394
13,GCUCCAUCAUCAAGACUUATT against TSSK2,inactive: -0.064
14,GGGACAUCCGAGAUCCUAATT against LAMB1,active: 1.07
15,GCACAGUCAUCAUUCCGAATT against CYP21A2,inactive: -0.26
16,GGCUAAUCGAGACUUGUUATT against ANXA7,inactive: 0.671
17,GAGAAGUGCGUGUAUGAGATT against LRP10,inactive: 0.109
18,GCACUUCAGCGAGUCGGAATT against RPS6KA4,inactive: 0.193
19,GGAGGAUAAAAUUUCCAUUTT against CST5,inactive: 0.466
20,GACAGUUCCGUGUUCCGUUTT against GPR25,inactive: 0.377
21,GCAGUGGAUAGGUACGUCATT against MC5R,inactive: 0.225
22,ACAUCAAAAGGAAUGACUUTT against EIF5A,inactive: 0.00397
23,CAGUAUCCAUGGUGAUCUATT against ZP2,inactive: 0.0455

row,Sequence,median seed-adjusted z-score
1,GAUGAUGACUGGUUGAAGATT against PPIE,inactive: -0.699
2,CCCAGACUCUGUAAGGUGATT against PAQR5,inactive: -0.0985
3,ACUUCCCUCCAGUACCUGUTT against SPSB3,inactive: 0.457
4,CCGUUUUAAUGGUGUUUCATT against TDG,inactive: 0.0549
5,GCACAAGACGAACUCAGUATT against UBE2J2,inactive: -0.341
6,GGGUCUAUGCAACACCGUUTT against AASDH,inactive: 0.156
7,GCAAUUUGCUUCUAUAUGATT against PCDHB5,inactive: 0
8,GAGUUGGAACAGUCGGCUATT against GRK4,inactive: -0.267
9,AAAUAUUCCUCGUGCUAAATT against BRSK1,inactive: -0.0495
10,GUUUUAUCCUAUAUUCAUATT against MGST2,inactive: 0.387
11,CGCAAGCAAGAGGAACAAATT against PSIP1,inactive: 0.549
12,GGUUUACAGCACCAAAUAATT against ARSB,inactive: 0.914
13,AAGAGAACGUGAACACCUATT against DNAJC5,inactive: -0.0844
14,CAACUGUUGGACAACAAAATT against TMEM87B,inactive: -0.51
15,CUGAGUUACUGGGCCCAGATT against S100A8,inactive: -0.337
16,GGUCUUUAAGCCUCACCAATT against ESAM,inactive: 0.314
17,GCAUCACCAUCCUUCCGCATT against BACE1,inactive: -0.537
18,GGAUGAGAUUGUAAUGCAATT against KLHL18,inactive: -0.126
19,CACCAGGGAUCACACCUUATT against ZNF304,inactive: -0.44
20,CGACAACCCGGAAAGAUUUTT against TRIML1,inactive: 0
21,GGAGGAGCUAUUACGAAUATT against KATNA1,inactive: -0.471
22,CGUGCAAGGUUCAAAGAGATT against HPSE,inactive: 0.153
23,AGCUCAUAGCUGACCCAGATT against ZC3H3,inactive: -0.622

# Shown as tab-separated lines: part of the list above.
row	Sequence	median seed-adjusted z-score
1	CACAAUUCAUGACCAUAUUTT against LRRC4	inactive: 0.255
9	GCCCACUGACCAUACCUCATT against NAT6	inactive: -0.327
